Laboratory results taken from PubChem BioAssay AID1671190 (National Center for Advancing Translational Sciences (NCATS), 2021).
In all, about 580,000 compounds went through this assay and about 6,100 (1.1%) were called active. Inconclusive results, whose numbers are uncertain, are shown with a selection of clear calls. The call rests on the fitted dose curve; in most records, active means well fitted inhibition curve with a large enough effect; inconclusive means small, poorly fitted or top-dose-only effect, or another doubt; inactive means no such curve, though single readings can be large or run the other way. A potency beside an inconclusive call is a rough fit, not a confirmed value.

Sequences of proteins named here, by UniProt entry; tags and fusion partners are left off. A change or cut given only in a name is not applied to a line headed by its entry.
UniProt P18054: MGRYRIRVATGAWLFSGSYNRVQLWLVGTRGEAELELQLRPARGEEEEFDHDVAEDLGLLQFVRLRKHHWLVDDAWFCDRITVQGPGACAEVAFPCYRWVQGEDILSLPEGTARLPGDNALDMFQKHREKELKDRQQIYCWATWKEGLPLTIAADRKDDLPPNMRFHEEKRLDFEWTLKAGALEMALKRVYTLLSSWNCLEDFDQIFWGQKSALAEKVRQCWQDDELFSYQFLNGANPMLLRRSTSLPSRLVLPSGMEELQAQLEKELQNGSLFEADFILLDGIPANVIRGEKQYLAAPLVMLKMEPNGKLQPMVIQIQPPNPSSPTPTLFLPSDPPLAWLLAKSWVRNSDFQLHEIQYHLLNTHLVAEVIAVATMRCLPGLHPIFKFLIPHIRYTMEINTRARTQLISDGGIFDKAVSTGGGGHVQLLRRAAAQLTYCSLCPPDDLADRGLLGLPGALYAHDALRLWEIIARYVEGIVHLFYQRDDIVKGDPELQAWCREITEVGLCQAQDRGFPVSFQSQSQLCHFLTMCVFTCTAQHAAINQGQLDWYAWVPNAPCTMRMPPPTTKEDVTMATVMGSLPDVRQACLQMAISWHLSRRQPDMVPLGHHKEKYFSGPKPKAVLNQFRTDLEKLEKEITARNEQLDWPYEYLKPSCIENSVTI

Target: Polyunsaturated fatty acid lipoxygenase ALOX12 (Homo sapiens) (UniProt P18054)
Experiment: Primary qHTS assay for inhibitors of human arachidonate 12S-lipoxygenase (ALOX12): Round 2
Conditions: purified 12hLO, xylenol orange hydroperoxide absorbance; activity change, negative = inhibition: at 108 µM (top of the series) unless noted
Summary of the method: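 Hydroperoxide product was detected by ferrous iron/xylenol orange as the 573 to 405 nm absorbance ratio. Arachidonic acid at 40 uM (final) was turned over for 30 min at room temperature by 150 nM human 12hLO, pH 7.0 Hepes buffer, after 15 min compound preincubation.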
On the % scale 0 is the no-effect control and ±100 the full control effect; potency means the concentration at half of the fitted maximal effect.

Compound | Potency | activity change, negative = inhibition
CCCC(c1nnnn1C(C)(C)CC)N1CCN(C2CCCC2)CC1 (stereo unspecified) | inconclusive: 35.5 µM [inhibitor, partial curve, poor fit] | 
Cc1ccsc1CN(C)C(=O)CCc1nnc(COc2ccccc2)o1 |  | inactive: -3.01%
O=C(O)Cn1cc(C(C(=O)O)N2CCN(Cc3ccncc3)CC2)c2ccccc21 (stereo unspecified) | inconclusive: 17.8 µM [inhibitor, partial curve, poor fit] | 
O=C(NCCC1=CCCCC1)c1ccc2c(c1)N(Cc1cccc(Cl)c1)C(=O)c1ccccc1S2(=O)=O | inconclusive: 89.1 µM [inhibitor, partial curve, poor fit] | 
COc1ccc(N2CCN(c3ccc(-c4nc(-c5cccc(C)c5)no4)cc3[N+](=O)[O-])CC2)cc1 | inconclusive: 44.7 µM [inhibitor, partial curve, poor fit] | 
CC(C)CC(NC(=O)C1CCC(C(C)C)CC1)C(=O)O (stereo unspecified) |  | inactive: -37.4%
CCCc1noc(CCC(=O)Nc2ccc(OC)c(OC3CCCC3)c2)n1 |  | inconclusive: -32.5% [inhibitor]
COc1cc(SC)ccc1C(=O)OC(C)C(=O)c1ccc(C)cc1 (stereo unspecified) | inconclusive: 28.2 µM [inhibitor, single point] | 
c1ccc(OCCNc2nc(NCC3CC3)nc3ccsc23)cc1 | inconclusive: 35.5 µM [inhibitor, partial curve, poor fit] | 
O=C(Cc1csc(NC(=O)Nc2ccc(Cl)cc2)n1)NC1CCCC1 | inconclusive: 89.1 µM [inhibitor, single point] | 
O=C(Nc1ccc2oc(-c3ccc(-c4ccccc4)cc3)nc2c1)c1ccco1 | inconclusive: 100 µM [inhibitor, single point] | 
Cc1nn(C)c(-c2n[nH]c(=S)n2Cc2ccco2)c1Cl | inconclusive: 44.7 µM [inhibitor, partial curve, poor fit] | 
CCOc1ccc(N2C(=O)C(c3nnnn3C(C)(C)C)N(Cc3ccc(OC)c(OC)c3)C2=O)cc1 (stereo unspecified) | inconclusive: 50.1 µM [inhibitor, partial curve, poor fit] | 
COc1ccc(-c2cc3ccccc3n2CC(O)CN2CCCCC2)cc1 (stereo unspecified) | inconclusive: 0.794 µM [inhibitor, full curve, poor fit] | 
COc1ccccc1N1CCN(CC[C@H]2CN(C(=O)N3CCOCC3)CC[C@H]2CC(=O)O)CC1 | inconclusive: 39.8 µM [inhibitor, partial curve] | 
CN1[C@H](CC(=O)c2ccccc2)CCC[C@H]1C[C@H](O)c1ccccc1 | inconclusive: 25.1 µM [inhibitor, single point] | 

Quoted from above (two entries):
Compound | Potency | activity change, negative = inhibition
O=C(NCCC1=CCCCC1)c1ccc2c(c1)N(Cc1cccc(Cl)c1)C(=O)c1ccccc1S2(=O)=O | inconclusive: 89.1 µM [inhibitor, partial curve, poor fit] | 
COc1ccc(N2CCN(c3ccc(-c4nc(-c5cccc(C)c5)no4)cc3[N+](=O)[O-])CC2)cc1 | inconclusive: 44.7 µM [inhibitor, partial curve, poor fit] | 
